{"source": "patent US20110021367A1", "about": "(INDIAN INSTITUTE OF SCIENCE, published 2011)", "binders": {"B1": {"name": "σ^L2 domain of M. tuberculosis σ^L (N-term His-tag σ^L 1-95) (other)", "chain": "MARVSGAAAAEAALMRALYDEHAAVLWRYALRLTGDAAQAEDVVQETLLRAWQHPEVIGDTARPARAWLFTVARNMIIDERRSARFRNVVGSTDQ", "notes": "range 1-95; not shown: N-terminal His-tag from pET-Duet1 MCS1"}}, "biological_target": "T1, holo-RslA 1-108 (Zn2+ bound N-terminal cytosolic domain of M. tuberculosis anti-σ^L factor RslA), N-term His-tag (Mycobacterium tuberculosis) (UniProt P9WJ67)", "T1 sequence (chain, Zn2+ bound in 1,1 stoichiometry (holo, reduced; three free cysteines))": "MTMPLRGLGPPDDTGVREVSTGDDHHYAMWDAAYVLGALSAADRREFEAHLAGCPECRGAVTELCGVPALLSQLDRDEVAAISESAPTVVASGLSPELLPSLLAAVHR", "experiment": "SPR", "note": "No constants are given. Whether binding was seen depends on the method and setting. Some results given as binding are weak or reduced against the parent protein; the word gives no strength. Tags and fused reporters may be left off the sequences shown."}
{"binder": "B1", "values": [{"measurement": "binding", "result": "binds"}]}
